Earlier results in patent US20260115161A1, “2-HYDROXY-OCTADECENE-9-CIS-OATE FOR USE IN THE TREATMENT OF ONCOLOGICAL PATHOLOGIES AND NEUROPATHIC PAIN” (Laminar Pharmaceuticals S.A., priority 2023, published 2026).
Where two headings read alike, the source gives them in different places. At least one compound was matched to its structure with a doubt left.

System: glioblastoma
Details: standard treatment, cited from earlier work

Cn1nnc2c(C(N)=O)ncn2c1=O [temozolomide]
overall survival (OS) (17 months after diagnosis): 38%
progression-free survival (PFS) (17 months): 18%
overall survival (OS) (28 months after diagnosis): 9.4%
progression-free survival (PFS) (28 months): 2.8%
overall survival (OS) (36 months after diagnosis): 1.4%
progression-free survival (PFS) (36 months): 0.35%
